Hit rate of the full screen: of about 320,000 compounds, about 22,000 (6.9%) were called active. This list was built around the results that the source calls inconclusive (neither active nor inactive); the mix of calls is not that of the screen. Calls follow the shape of the dose curve; as a rule, active = well fitted inhibition curve with a large enough effect; inconclusive = small, poorly fitted or top-dose-only effect, or another doubt; inactive = no such curve, though single readings can be large or run the other way. Where the call is inconclusive, the potency comes from a doubtful curve fit.
Test: Primary qHTS for delayed death inhibitors of the malarial parasite plastid, 96 hour incubation
Conditions: P. falciparum luciferase reporter growth; series mostly up to 28.7 µM; activity change, negative = inhibition: at the top concentration
Method in brief: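 Two parasite generations (96 h, 37 C, 5% CO2) of compound exposure in infected erythrocytes (0.05% parasitemia, 2% hematocrit). Luciferase-reporter P. falciparum; decreased luminescence indicates inhibited growth, aimed at apicoplast-acting delayed death.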
% is scaled to controls: 0 for no effect and ±100 for the full control effect; potency is read from the fitted curve at half-maximal effect.

SMILES	Potency	activity change, negative = inhibition
CCCCCCSc1ccc([C@H]2N[C@@](Cc3ccccc3)(C(=O)OC)[C@H]3C(=O)N(C)C(=O)[C@@H]23)cc1OC	active: 2.33 µM	–
CN1CCN(c2nc(-c3ccccc3)nc(-c3ccccc3)c2C#N)CC1	inconclusive: 18.5 µM [inhibitor, single point]	–
O=C(NC1CCSc2ccccc21)c1c(F)cccc1Cl (stereo unspecified)	inconclusive: 4.15 µM [inhibitor, partial curve]	–
O=C(CN1CCN(S(=O)(=O)c2ccc(F)cc2)CC1)Nc1cc(C(F)(F)F)ccc1Cl	inconclusive: 0.233 µM [inhibitor, full curve, poor fit]	–
CSc1nnc2c3ccccc3c3ccccc3c2n1	inconclusive: 5.22 µM [inhibitor, partial curve, poor fit]	–
CCC(=O)Oc1c(S(=O)(=O)c2ccc(C)cc2)c(C)nn1C(C)(C)C	inconclusive: 0.0026 µM [inhibitor, full curve, poor fit]	–
COc1ccc(CCNC(=O)c2ccc(CS(=O)(=O)Cc3cccc(C)c3)o2)cc1OC	inconclusive: 0.0928 µM [inhibitor, full curve]	–
Cc1c(CC(=O)N2C[C@H]3C[C@@H](C2)c2cccc(=O)n2C3)c(=O)oc2c(C)c(O)ccc12	–	inactive: 2.92%
COc1cc(NC(=O)c2ccccc2)c(OC)cc1NC(=O)CN1CCN(c2ccccn2)CC1	inconclusive: 0.329 µM [inhibitor, full curve]	–
CNC(=O)c1cc2c(=O)n3cc(C)ccc3nc2n(Cc2ccco2)c1=N	inconclusive: 11.7 µM [inhibitor, single point]	–
Cc1cc(C(F)(F)F)nn1CC(=O)Nc1ccc2c(c1)OCO2	inconclusive: 18.5 µM [inhibitor, single point]	–
CCOc1ccc(N(C)C(=O)CCc2nnc3ccc(N4CCCCC4)nn23)cc1	inconclusive: 10.4 µM [inhibitor, single point]	–
CCOc1ccc(NC(=O)C2CCN(S(=O)(=O)c3ccc4c(c3)NC(=O)C(C)S4)CC2)cc1 (stereo unspecified)	inconclusive: 18.5 µM [inhibitor, single point]	–
Cc1cc(OCC(=O)Nc2ccc(Br)cc2)cc2c1C(=O)CC(C)(C)O2	inconclusive: 0.0147 µM [inhibitor, full curve]	–
CC1(C)CC(NC(=O)Cc2ccc(Cl)cc2)CC(C)(C)N1	inconclusive: 18.5 µM [inhibitor, single point]	–
CCN(CC)CC1C(=O)N(c2ccc(OC)cc2)C1c1ccccc1 (stereo unspecified)	inconclusive: 20.8 µM [inhibitor, partial curve, poor fit]	–
COc1ccccc1NC(=O)CSc1ccc2nnc(-c3cccnc3)n2n1	inconclusive: 11.7 µM [inhibitor, single point]	–
Cc1c(C(=O)N2CCCCC2)c(S(=O)(=O)Nc2ccc(F)cc2F)c(C)n1C	inconclusive: 9.28 µM [inhibitor, single point]	–
Cc1cc(C)nc(NC(=O)c2ccc(Cl)c([N+](=O)[O-])c2)n1	inconclusive: 0.0026 µM [inhibitor, full curve, poor fit]	–
CCC(C)C(NC(=O)CCCNC(=O)CCC(=O)OC1O[C@H]2OC3(C)CC[C@H]4[C@H](C)CCC(C1C)C24OO3)C(=O)O (stereo partly specified)	inconclusive: 0.0026 µM [inhibitor, full curve, poor fit]	–
CCCC(=O)NCc1ccc2c(c1)cc(C)n2C	–	inactive: 244%

Three compounds out of the list, ordered by molar mass, low to high.
SMILES	Potency	activity change, negative = inhibition
CSc1nnc2c3ccccc3c3ccccc3c2n1	inconclusive: 5.22 µM [inhibitor, partial curve, poor fit]	–
Cc1cc(C)nc(NC(=O)c2ccc(Cl)c([N+](=O)[O-])c2)n1	inconclusive: 0.0026 µM [inhibitor, full curve, poor fit]	–
CCCCCCSc1ccc([C@H]2N[C@@](Cc3ccccc3)(C(=O)OC)[C@H]3C(=O)N(C)C(=O)[C@@H]23)cc1OC	active: 2.33 µM	–

(listing goes on)

SMILES	Potency	activity change, negative = inhibition
CCOC(=O)C1CCN(C(=S)Nc2ccc(S(N)(=O)=O)cc2)CC1	inconclusive: 8.28 µM [inhibitor, partial curve, poor fit]	–
CCc1ccc(NC(=O)N2CCc3ccccc3C2)cc1	inconclusive: 18.5 µM [inhibitor, single point]	–
CN(C)c1ccc(CC2C(=O)Nc3ccccc32)cc1 (stereo unspecified)	inconclusive: 13.1 µM [inhibitor, single point]	–
COc1c(/C=N/Nc2ccc([N+](=O)[O-])cc2[N+](=O)[O-])c(C)nn1-c1ccccc1	inconclusive: 2.33 µM [inhibitor, full curve, poor fit]	–
CCOC(=O)c1c(NC(=O)CN(CC)CC)sc2c1CCN(C(=O)OCC)C2	active: 8.28 µM	–
C=CCOC(=O)C1=C(C)NC(SCC(N)=O)=C(C#N)C1c1cccs1 (stereo unspecified)	inconclusive: 11.7 µM [inhibitor, single point]	–
C/C(=C\c1ccc(Br)cc1)C(=O)c1c(C)cc(C)[nH]c1=O	active: 10.4 µM	–
CCOC(=O)C1=C(COC(=O)c2cccnc2Cl)NC(=O)NC1C (stereo unspecified)	–	inactive: 14.2%
c1ccc2c(c1)ccc1nnc(SCc3ccc4c(c3)OCO4)n12	inconclusive: 18.5 µM [inhibitor, single point]	–
COc1ccc(C2=NN(C(=O)c3cccs3)C(c3ccc(OC)cc3)C2)cc1 (stereo unspecified)	inconclusive: 18.5 µM [inhibitor, single point]	–
c1ccc(OCCCc2nc(-c3ccncc3)no2)cc1	–	inactive: 15.9%
O=C(N/N=C/c1ccc(-c2ccccc2[N+](=O)[O-])o1)c1cncc(Br)c1	–	inactive: 13.6%
Cc1ccc(NC(=O)c2cc(Cl)nc3ccccc23)cc1	–	inactive: 135%
COc1cc(C(=O)NCc2ccc3c(c2)OCO3)c([N+](=O)[O-])cc1OC	inconclusive: 16.5 µM [inhibitor, single point]	–
O=C(NCCCCc1ccccc1)Nc1ccc(F)cc1F	inconclusive: 18.5 µM [inhibitor, single point]	–
CC(=O)c1cccc(NC(=O)N2CCCCCC2)c1	–	inactive: -2.82%
O=[N+]([O-])c1cc(C(F)(F)F)ccc1NCCNC(=S)Nc1ccc(Cl)cc1	inconclusive: 8.28 µM [inhibitor, partial curve, poor fit]	–
COc1ccc([N+](=O)[O-])c(OC)c1C(=O)NC(=O)Nc1c(F)cc(F)cc1F	inconclusive: 20.8 µM [inhibitor, partial curve, poor fit]	–
C[n+]1c(/C=C/c2ccc(O)cc2)ccc2ccccc21	active: 2.33 µM	–
Cc1cccc(-n2c(C)nc3sccc3c2=O)c1	inconclusive: 5.22 µM [inhibitor, partial curve, poor fit]	–

Reference: PubChem BioAssay AID504834 (National Center for Advancing Translational Sciences (NCATS), 2011)
